From the supplement of paper PMC9015667
Counter-ions that a name gives are not always drawn. This is one part of the list. Many values rest on one well or one pass, so single values are uncertain.

What follows are molecules tested on M229R (matched melanoma line resistant to BRAF inhibitors) (assay: reduction in cell viability relative to untreated/vehicle; higher = more growth inhibition). Conditions: 200 nM; 72 h.

Compound	reduction in cell viability [%]
CC(C)Oc1ccc2c(=O)c(-c3ccccc3)coc2c1 [Ipriflavone]	< 0
COc1cc(CNC(=O)CCCC/C=C/C(C)C)ccc1O [Capsaicin]	< 0
COc1ccc2c(c1)c(CC(=O)O)c(C)n2C(=O)c1ccc(Cl)cc1 [Indomethacin]	< 0
N.N.O=C([O-])C[O-].[Pt+2] [Nedaplatin]	< 0
Cc1cc(OCCCS(C)(=O)=O)cc(C)c1-c1cccc(COc2ccc3c(c2)OC[C@H]3CC(=O)O)c1	< 0
CC(C)c1onc(-c2c(Cl)cccc2Cl)c1COc1ccc(/C=C/c2cccc(C(=O)O)c2)c(Cl)c1	< 0
COc1ccc(S(=O)(=O)Nc2cccnc2Nc2ccc(O)cc2)cc1	18.4
CCCCc1ncc(/C=C(\Cc2cccs2)C(=O)O)n1Cc1ccc(C(=O)O)cc1 [Eprosartan mesylate]	< 0
CC(C)(C)c1cc(C(C)(C)C)c(NC(=O)c2c[nH]c3ccccc3c2=O)cc1O [Ivacaftor]	< 0
CC(C)Oc1cc(Nc2nc(N[C@@H](C)c3ccc(F)cn3)ncc2Cl)n[nH]1	< 0
CC(C[N+](C)(C)C)OC(N)=O (stereo not drawn) [Bethanechol chloride]	< 0
CS(=O)(=O)c1cccc(CNc2nc(Nc3ccc4c(c3)CCC(=O)N4)ncc2C(F)(F)F)c1	< 0
Cn1c(N2CCCCS2(=O)=O)nc(C(=O)NCc2ccc(F)cc2)c(O)c1=O	< 0
O=C(Nc1cccc(C(F)(F)F)c1)Nc1cc(S(=O)(=O)NC2CC2)ccc1-c1ccsc1	< 0
COc1ccc(-c2cc3nccn3c(Nc3ncccc3C(N)=O)n2)cc1OC	< 0
CC(=O)NC[C@H]1CN(c2ccc(N3CCOCC3)c(F)c2)C(=O)O1 [Linezolid]	< 0

The molecules below were run on M238P (parental melanoma line) in the same assay as above. Conditions: 200 nM; 72 h.

Compound	reduction in cell viability [%]
Cc1c(C)n(Cc2ccc(-c3ccccc3C(=O)O)cc2)c2ccc(C(=O)N[C@@H](C)c3ccc([N+](=O)[O-])cc3)cc12	< 0
O=c1cc(CN2CCOCC2)occ1OCCCCCSc1ccnc2cc(C(F)(F)F)ccc12	< 0
O=c1ncn2nc(Sc3ccc(F)cc3F)ccc2c1-c1c(Cl)cccc1Cl	< 0
CO[C@H]1/C=C/O[C@@]2(C)Oc3c(C)c(O)c4c(c3C2=O)C2=NC3(CCN(CC(C)C)CC3)NC2=C(NC(=O)/C(C)=C\C=C\[C@H](C)[C@H](O)[C@@H](C)[C@@H](O)[C@@H](C)[C@H](OC(C)=O)[C@@H]1C)C4=O [Rifabutin]	< 0
O=C(O)C1=CO[C@@H](O[C@@H]2O[C@H](CO)[C@@H](O)[C@H](O)[C@H]2O)[C@@H]2C(CO)=CC[C@H]12 [Geniposidic acid]	< 0
O=c1c(-c2ccc(O)cc2)coc2cc(O)cc(O)c12 [Genistein]	< 0
CC(CCc1ccc(O)cc1)NCCc1ccc(O)c(O)c1 (stereo not drawn) [Dobutamine]	< 0
C=C1C(=O)[C@]23[C@H](O)[C@H]1CC[C@H]2[C@@]12CO[C@]3(O)[C@@H](O)[C@@H]1C(C)(C)CC[C@@H]2O [Oridonin]	< 0
CC(C)OC(=O)C(C(=O)OC(C)C)=C1SC=CS1 [Malotilate]	< 0
COc1cc2c(cc1-c1c(C)noc1C)ncc1[nH]c(=O)n([C@H](C)c3ccccn3)c12	< 0
Oc1ccc([C@@H]2Oc3ccc(O)cc3[C@@H]3CCC[C@@H]32)cc1 [Erteberel]	< 0
CN1CCN(c2c(F)cc3c(=O)c(C(=O)O)cn(CCF)c3c2F)CC1 [Fleroxacin]	< 0
COc1cccc2cc(-c3nc([C@H]4CC[C@H](C(=O)O)CC4)n4ncnc(N)c34)[nH]c12	8.4
O=c1c(O)c(-c2ccc(O)c(O)c2)oc2cc(O)cc(O)c12 [Quercetine]	< 0
NCC(=O)Nc1ccc(-n2nc(C(F)(F)F)cc2-c2ccc3c(ccc4ccccc43)c2)cc1	< 0
CC(C)C[C@@H](N)[C@H](O)C(=O)N[C@H](C(=O)N[C@H](C(=O)N[C@@H](CC(=O)O)C(=O)O)C(C)C)C(C)C [Amastatin]	< 0
C/C=C/C[C@@H](C)C(=O)[C@H]1C(=O)N[C@@H](C(C)C)C(=O)N(C)CC(=O)N(C)[C@@H](CC(C)C)C(=O)N[C@@H](C(C)C)C(=O)N(C)[C@@H](CC(C)C)C(=O)N[C@@H](C)C(=O)N[C@H](C)C(=O)N(C)[C@@H](CC(C)C)C(=O)N(C)[C@@H](CC(C)C)C(=O)N(C)[C@@H](C(C)C)C(=O)N1C [Valspodar]	< 0

Some of these compounds in order of length of the SMILES, high to low:
Compound	reduction in cell viability [%]
CO[C@H]1/C=C/O[C@@]2(C)Oc3c(C)c(O)c4c(c3C2=O)C2=NC3(CCN(CC(C)C)CC3)NC2=C(NC(=O)/C(C)=C\C=C\[C@H](C)[C@H](O)[C@@H](C)[C@@H](O)[C@@H](C)[C@H](OC(C)=O)[C@@H]1C)C4=O [Rifabutin]	< 0
Cc1c(C)n(Cc2ccc(-c3ccccc3C(=O)O)cc2)c2ccc(C(=O)N[C@@H](C)c3ccc([N+](=O)[O-])cc3)cc12	< 0
O=c1cc(CN2CCOCC2)occ1OCCCCCSc1ccnc2cc(C(F)(F)F)ccc12	< 0
Oc1ccc([C@@H]2Oc3ccc(O)cc3[C@@H]3CCC[C@@H]32)cc1 [Erteberel]	< 0
O=c1c(-c2ccc(O)cc2)coc2cc(O)cc(O)c12 [Genistein]	< 0
CC(C)OC(=O)C(C(=O)OC(C)C)=C1SC=CS1 [Malotilate]	< 0
